Data as given in patent US20210363232A1.
Results are given in words; binding and its absence hold for the method and conditions named. Some binding calls cover weakened binding; strength is not graded here.

Biological target: T1, Cyno IL-34 (cyno (cynomolgus monkey)) (UniProt G7Q1L3)
T1 sequence: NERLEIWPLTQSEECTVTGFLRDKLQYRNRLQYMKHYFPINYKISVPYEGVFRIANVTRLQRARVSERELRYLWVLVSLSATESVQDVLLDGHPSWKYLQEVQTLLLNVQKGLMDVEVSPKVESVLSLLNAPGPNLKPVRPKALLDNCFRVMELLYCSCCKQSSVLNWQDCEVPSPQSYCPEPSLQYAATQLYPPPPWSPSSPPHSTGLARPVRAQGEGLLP
Assay: MSD solution equilibrium titration at 37 C (Table 3)

B1: Antibody 1 (antibody, human IgG4 S228P, kappa, F234A L235A, V domains shown)
VH: EVQLLESGGGLVQPGGSLRLSCAASGFTFSSYATSWVRQAPGKGLEWVSAISHSGRSTYYADSVKGRFTISRDNSKNTLYLQMNSLRAEDTAVYYCARGRSSLDTWGQGTLVTVSS
VL: EIVLTQSPGTLSLSPGERATLSCRASQSISSAYLAWYQQKPGQAPRLLIYASSIRPTGIPDRFSGSGSGTDFTLTISPLEPEDFAVYYCSQYGDSLSFGGGTKVEIKR
- binding: binds
